No constants are given. Whether binding was seen depends on the method and setting. Binding seen in cells or lysates may run through a third protein. Some entries that bind do so weakly or less than the wild type.
What was measured:
[1] = target: ATP6V0D1 (human (endogenous in HEK-293T and MCF-7)) (UniProt P61421); assay: co-IP; MCF-7 cells infected with LV-sh-Con or LV-sh-ATP6AP1; ATP6V0D1-ATP6V1B2 interaction
[2] = target: ATP6V0D1 (human (endogenous in HEK-293T and MCF-7)) (UniProt P61421); assay: co-IP; HEK-293T cells transfected with Flag-ATP6AP1 plasmids; ATP6V0D1-ATP6V1B2 interaction
Flag-ATP6AP2 = Flag-ATP6AP2 (UniProt O75787); assay: co-IP; HEK-293T cells transfected with HA-Rab7 and Flag-ATP6AP1 or Flag-ATP6AP2 plasmids for 48 h
Flag-ATP6AP1 (human) = Flag-ATP6AP1 (human) (UniProt Q15904); assay: as above

Protein sequences, listed by entry. Tags and fused reporters are not part of them. Residues count along the entry.
UniProt P61421: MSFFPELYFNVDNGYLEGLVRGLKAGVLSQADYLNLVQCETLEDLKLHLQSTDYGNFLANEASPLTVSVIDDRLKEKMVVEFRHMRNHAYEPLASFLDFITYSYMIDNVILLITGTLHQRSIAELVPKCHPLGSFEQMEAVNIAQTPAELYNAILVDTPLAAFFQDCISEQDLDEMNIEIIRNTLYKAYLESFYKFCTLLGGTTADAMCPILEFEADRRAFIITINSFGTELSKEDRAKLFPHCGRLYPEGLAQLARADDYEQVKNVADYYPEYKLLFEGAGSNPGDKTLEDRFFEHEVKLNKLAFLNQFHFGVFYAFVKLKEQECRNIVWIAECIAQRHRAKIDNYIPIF
UniProt O75787, residues 17-350: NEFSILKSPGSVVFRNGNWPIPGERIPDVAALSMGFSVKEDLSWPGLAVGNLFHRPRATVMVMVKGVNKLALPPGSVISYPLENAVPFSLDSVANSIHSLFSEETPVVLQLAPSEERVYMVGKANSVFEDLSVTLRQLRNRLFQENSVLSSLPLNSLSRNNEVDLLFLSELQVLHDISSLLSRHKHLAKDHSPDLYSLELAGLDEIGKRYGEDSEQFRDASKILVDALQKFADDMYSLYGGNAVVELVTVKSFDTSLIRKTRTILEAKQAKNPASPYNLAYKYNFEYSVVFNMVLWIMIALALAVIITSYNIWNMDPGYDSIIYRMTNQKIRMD
UniProt Q15904, residues 42-470: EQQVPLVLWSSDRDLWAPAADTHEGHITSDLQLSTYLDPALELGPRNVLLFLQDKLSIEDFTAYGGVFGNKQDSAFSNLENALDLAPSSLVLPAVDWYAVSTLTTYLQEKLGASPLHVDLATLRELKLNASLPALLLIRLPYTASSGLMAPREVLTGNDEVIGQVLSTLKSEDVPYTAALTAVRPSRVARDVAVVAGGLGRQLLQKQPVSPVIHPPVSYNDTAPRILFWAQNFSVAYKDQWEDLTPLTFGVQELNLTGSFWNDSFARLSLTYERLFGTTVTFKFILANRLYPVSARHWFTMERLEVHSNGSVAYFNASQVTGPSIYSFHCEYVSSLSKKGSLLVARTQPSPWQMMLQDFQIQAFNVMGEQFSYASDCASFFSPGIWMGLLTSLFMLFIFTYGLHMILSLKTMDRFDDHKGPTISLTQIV
UniProt P21281: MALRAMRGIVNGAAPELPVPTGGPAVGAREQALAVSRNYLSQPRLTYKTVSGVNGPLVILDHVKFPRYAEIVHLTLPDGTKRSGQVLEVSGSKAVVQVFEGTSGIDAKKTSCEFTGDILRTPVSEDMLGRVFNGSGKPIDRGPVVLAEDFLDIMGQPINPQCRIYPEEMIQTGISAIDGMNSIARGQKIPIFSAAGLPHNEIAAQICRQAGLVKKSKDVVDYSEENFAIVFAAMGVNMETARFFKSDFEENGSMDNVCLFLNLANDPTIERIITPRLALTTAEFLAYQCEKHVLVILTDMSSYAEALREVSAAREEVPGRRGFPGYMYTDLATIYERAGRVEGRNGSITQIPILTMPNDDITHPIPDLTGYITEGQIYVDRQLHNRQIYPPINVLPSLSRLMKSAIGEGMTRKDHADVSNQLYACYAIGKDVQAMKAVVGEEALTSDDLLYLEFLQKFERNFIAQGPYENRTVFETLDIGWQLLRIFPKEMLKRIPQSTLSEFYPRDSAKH
UniProt P51149: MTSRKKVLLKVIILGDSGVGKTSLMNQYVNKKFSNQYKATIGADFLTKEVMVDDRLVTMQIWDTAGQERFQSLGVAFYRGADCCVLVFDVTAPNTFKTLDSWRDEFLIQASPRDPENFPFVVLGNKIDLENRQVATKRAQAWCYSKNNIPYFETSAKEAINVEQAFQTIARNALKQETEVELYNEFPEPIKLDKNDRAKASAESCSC

binding [1]	binding [2]	binding (Flag-ATP6AP2)	binding (Flag-ATP6AP1 (human))	Substance
binds	binds	–	–	ATP6V1B2 (from UniProt P21281 1-511)
–	–	no binding	binds	HA-Rab7 (from UniProt P51149 1-207)

Reference: paper PMC11937278
